Here are results for 15 targets from the supplement of paper PMC10849652.

Sequences of proteins named here, by UniProt entry; tags and fusion partners are left off. A change or cut given only in a name is not applied to a line headed by its entry.
UniProt P53814: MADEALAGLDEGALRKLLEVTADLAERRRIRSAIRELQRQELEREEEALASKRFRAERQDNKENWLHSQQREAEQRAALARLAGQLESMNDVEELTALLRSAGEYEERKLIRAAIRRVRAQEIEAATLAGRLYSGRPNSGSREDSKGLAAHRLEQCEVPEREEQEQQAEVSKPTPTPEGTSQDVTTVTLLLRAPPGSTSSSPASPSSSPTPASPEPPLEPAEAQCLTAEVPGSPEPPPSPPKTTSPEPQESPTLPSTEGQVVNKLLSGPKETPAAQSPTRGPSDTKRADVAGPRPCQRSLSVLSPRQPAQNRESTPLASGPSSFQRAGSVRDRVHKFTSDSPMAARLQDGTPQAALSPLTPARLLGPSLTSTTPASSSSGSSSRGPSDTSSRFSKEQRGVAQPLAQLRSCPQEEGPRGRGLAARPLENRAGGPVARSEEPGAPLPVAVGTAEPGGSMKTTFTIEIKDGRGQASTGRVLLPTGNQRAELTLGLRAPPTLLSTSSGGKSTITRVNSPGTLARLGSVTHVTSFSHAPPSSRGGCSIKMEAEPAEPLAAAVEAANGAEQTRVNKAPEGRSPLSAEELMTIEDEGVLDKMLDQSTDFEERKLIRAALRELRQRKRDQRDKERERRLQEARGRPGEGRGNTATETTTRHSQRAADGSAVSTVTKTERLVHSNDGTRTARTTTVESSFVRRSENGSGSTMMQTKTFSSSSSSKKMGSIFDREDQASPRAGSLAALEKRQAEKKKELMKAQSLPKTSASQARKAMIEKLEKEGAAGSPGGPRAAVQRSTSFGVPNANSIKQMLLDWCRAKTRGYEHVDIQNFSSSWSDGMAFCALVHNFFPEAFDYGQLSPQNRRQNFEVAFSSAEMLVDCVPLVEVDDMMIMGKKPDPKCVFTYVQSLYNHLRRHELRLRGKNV
UniProt Q96KF7: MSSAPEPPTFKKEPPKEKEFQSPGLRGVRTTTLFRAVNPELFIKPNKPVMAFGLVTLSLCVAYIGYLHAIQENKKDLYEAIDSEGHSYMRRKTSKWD
UniProt Q9NRG4: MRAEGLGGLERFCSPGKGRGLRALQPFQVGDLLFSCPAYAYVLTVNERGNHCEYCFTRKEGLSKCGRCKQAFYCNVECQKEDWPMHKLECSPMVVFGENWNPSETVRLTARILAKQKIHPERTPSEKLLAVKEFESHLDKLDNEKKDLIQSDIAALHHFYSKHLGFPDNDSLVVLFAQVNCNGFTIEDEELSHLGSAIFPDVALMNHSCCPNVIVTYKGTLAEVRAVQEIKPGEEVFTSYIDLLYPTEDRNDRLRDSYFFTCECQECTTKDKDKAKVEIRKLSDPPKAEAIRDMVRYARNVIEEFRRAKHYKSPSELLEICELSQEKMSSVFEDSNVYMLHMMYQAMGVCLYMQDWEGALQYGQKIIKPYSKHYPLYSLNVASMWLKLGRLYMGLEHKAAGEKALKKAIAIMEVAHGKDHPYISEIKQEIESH
UniProt P04179: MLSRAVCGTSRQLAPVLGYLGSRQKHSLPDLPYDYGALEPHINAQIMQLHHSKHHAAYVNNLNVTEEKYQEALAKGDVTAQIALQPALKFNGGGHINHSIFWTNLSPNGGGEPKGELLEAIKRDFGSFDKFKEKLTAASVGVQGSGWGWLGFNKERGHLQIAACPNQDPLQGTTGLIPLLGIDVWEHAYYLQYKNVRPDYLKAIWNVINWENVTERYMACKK
UniProt P62308, whole entry, looked up: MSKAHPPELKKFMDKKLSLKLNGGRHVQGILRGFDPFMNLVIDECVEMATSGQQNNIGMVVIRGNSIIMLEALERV
UniProt Q02446, whole entry, looked up: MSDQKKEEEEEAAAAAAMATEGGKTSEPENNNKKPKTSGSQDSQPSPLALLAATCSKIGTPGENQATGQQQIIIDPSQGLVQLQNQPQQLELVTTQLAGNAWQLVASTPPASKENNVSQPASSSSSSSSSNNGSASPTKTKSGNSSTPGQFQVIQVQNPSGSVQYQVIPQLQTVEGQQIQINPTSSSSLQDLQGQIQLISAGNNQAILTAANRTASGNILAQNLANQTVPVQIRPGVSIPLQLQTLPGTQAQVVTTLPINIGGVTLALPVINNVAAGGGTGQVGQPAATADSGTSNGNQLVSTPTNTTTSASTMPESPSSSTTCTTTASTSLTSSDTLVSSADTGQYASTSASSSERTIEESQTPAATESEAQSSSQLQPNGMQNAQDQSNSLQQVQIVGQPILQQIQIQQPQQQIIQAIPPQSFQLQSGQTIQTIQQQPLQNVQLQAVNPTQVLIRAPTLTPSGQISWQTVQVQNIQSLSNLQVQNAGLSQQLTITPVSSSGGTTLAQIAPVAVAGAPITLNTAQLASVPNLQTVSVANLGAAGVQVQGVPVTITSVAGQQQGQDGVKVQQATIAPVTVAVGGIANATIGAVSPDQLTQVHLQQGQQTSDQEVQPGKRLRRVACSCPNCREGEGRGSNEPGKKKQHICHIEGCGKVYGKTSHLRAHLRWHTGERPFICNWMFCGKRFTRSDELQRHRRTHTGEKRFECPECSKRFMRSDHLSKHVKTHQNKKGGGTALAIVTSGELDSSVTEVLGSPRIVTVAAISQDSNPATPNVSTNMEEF
UniProt O14508, whole entry, looked up: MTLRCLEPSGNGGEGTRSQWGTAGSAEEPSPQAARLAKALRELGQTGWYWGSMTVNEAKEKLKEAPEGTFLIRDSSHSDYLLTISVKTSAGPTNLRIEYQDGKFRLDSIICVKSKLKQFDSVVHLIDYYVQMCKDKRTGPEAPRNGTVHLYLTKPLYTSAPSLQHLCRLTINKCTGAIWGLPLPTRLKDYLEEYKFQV
UniProt Q8NDV3: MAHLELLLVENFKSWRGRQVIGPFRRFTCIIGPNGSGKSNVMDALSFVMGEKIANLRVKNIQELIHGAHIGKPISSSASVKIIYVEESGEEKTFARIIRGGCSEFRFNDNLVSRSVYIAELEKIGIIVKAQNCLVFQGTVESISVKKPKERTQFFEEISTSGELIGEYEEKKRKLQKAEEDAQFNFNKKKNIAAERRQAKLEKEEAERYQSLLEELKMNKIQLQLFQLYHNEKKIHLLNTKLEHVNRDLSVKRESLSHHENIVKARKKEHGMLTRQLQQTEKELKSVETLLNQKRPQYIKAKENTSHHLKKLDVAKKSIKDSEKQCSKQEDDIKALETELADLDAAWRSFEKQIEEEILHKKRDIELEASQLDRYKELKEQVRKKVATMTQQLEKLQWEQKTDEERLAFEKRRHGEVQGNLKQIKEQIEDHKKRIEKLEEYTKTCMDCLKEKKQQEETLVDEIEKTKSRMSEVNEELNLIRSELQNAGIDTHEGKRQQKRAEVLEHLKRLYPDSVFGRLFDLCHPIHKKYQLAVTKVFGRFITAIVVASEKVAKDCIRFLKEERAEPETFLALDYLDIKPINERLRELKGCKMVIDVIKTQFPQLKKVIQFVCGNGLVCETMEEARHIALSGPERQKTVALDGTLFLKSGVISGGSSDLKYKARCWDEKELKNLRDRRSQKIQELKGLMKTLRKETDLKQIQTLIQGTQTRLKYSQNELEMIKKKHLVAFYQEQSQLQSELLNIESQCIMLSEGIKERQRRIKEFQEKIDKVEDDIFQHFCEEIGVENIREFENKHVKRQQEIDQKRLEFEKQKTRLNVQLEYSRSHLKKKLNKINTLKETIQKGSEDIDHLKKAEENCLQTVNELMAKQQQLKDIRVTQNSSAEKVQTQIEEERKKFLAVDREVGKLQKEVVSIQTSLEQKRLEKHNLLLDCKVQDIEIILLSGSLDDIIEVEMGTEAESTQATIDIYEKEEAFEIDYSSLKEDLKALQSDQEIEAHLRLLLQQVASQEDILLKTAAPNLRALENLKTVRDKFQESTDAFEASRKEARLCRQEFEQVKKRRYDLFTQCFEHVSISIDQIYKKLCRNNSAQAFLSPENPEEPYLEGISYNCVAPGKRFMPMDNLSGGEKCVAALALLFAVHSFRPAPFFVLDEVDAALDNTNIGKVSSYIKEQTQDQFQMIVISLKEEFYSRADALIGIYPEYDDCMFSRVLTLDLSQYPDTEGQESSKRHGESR
UniProt P23497: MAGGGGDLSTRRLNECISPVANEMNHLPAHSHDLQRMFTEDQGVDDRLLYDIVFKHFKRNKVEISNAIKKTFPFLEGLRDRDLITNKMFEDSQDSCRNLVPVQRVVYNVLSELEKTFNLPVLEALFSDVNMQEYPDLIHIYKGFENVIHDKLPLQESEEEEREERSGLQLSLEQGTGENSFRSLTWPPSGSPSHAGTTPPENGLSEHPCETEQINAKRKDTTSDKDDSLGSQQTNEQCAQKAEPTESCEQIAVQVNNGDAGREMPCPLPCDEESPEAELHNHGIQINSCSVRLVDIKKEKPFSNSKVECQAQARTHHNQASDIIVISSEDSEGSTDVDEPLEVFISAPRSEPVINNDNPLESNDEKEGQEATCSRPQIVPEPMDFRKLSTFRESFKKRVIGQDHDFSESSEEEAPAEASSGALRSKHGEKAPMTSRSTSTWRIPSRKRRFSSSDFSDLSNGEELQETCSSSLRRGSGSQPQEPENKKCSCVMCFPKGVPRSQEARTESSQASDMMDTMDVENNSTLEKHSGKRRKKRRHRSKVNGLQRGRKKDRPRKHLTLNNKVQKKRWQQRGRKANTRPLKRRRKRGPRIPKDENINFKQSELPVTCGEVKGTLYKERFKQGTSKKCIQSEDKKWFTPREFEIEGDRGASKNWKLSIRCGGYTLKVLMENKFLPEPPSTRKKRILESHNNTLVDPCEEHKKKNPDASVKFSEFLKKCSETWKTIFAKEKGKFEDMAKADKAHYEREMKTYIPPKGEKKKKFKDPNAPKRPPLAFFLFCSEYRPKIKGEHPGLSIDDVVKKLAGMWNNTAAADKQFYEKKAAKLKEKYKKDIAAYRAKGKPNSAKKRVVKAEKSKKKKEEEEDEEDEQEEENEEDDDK
UniProt P09486: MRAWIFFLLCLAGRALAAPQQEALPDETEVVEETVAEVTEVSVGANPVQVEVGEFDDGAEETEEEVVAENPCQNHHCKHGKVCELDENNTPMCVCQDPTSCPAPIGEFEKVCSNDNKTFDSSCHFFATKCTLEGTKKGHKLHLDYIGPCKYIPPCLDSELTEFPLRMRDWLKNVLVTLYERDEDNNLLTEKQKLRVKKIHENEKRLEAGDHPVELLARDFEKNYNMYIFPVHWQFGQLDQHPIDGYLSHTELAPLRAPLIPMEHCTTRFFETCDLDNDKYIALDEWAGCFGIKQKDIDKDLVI
UniProt Q96R06: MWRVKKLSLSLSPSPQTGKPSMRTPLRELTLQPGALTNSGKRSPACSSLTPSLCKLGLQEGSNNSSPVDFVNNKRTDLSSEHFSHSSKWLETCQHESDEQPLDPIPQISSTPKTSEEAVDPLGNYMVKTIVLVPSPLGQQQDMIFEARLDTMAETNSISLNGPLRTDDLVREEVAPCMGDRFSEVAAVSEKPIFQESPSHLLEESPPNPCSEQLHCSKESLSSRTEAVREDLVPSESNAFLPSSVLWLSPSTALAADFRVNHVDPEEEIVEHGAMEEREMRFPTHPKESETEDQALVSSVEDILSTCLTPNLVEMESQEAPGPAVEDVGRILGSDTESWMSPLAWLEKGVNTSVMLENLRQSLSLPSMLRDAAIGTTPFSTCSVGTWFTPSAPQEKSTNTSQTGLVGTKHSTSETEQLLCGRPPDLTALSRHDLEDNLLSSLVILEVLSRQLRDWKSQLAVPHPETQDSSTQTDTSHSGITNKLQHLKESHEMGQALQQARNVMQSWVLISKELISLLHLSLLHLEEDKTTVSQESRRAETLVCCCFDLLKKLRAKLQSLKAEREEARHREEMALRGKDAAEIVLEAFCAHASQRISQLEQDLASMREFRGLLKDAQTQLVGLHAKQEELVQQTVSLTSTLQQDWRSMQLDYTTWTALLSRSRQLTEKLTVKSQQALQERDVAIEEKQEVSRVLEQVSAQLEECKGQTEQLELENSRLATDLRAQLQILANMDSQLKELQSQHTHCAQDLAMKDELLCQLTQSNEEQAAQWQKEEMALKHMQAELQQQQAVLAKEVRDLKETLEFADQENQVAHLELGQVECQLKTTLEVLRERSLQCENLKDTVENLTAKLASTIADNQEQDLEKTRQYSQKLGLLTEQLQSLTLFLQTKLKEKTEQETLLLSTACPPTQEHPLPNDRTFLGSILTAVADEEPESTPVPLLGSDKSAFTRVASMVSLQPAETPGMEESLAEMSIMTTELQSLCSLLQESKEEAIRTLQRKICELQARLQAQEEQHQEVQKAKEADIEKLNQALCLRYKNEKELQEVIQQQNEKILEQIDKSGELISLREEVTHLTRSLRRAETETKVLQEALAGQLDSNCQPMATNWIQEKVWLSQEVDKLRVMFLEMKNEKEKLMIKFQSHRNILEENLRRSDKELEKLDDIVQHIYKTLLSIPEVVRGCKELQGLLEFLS
UniProt O95295: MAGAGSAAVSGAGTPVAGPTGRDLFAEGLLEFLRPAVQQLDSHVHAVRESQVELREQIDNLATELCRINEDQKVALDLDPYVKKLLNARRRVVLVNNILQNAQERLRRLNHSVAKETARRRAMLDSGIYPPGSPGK
UniProt O76070, whole entry, looked up: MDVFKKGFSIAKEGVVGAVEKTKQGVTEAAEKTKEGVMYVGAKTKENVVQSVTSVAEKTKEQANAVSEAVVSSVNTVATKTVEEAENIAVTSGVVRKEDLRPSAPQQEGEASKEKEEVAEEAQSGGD

The list shows a part of the results.

Holding throughout (test): log2 fold change, soluble protein after heating vs DMSO (PISA); higher = thermal stabilisation; K562 lysate, 10 uM; active = over 0.2 and 3.5 SD of the protein, either way, in both replicates (recomputed)
Compound in one assay: C#Cc1cccc(Nc2ncnc3cc(OCCOC)c(OCCOC)cc23)c1 [erlotinib]
The method, boiled down: (§1)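 Quantification was by TMTpro 16plex LC-MS/MS with equalised channel sums, applied to the supernatant after 21,000xg for 90 min. Samples were crude K562 extract at 1 mg/mL protein in PBS pH 7.4 with 1 mM MgCl2, treated with 10 μM compound for 30 min, heated for 3 min across 48°C-58°C, pooled and brought to 0.5% NP-40 at 4°C. Values are log-two fold changes in thermal stability relative to solvent controls, from duplicates.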

Compound in assay [1]: C/C(=N\NC(=O)C1=CC(=CC=C1)S(=O)(=O)N2CCOCC2)/C3=C(C=CC(=C3)Cl)O
In outline: as §1

Compound in assay [2]: C1=CC(=CC=C1C2=NC3=C(N2)C=C(C=C3)C(=O)N)OC4=CC=C(C=C4)Cl
In outline: as §1

Compound in assay [3]: C1=CC2=C(C=CC(=C2)/C=C\3/C(=O)NC(=NCC4=CC=CS4)S3)N=C1
In outline: as §1

Compound in assay [4]: C1=CC2=NC=CN=C2C=C1/C=C/3\C(=O)NC(=O)S3
In outline: as §1

Compound in assay [5]: C1=CC=C(C=C1)C2=NC(=C(N2)C3=CC=NC=C3)C4=CC(=C(C=C4)Cl)O
In outline:
as §1

Compound in assay [6]: C1=CC=C2C(=C1)C3=NNC4=CC=CC(=C43)C2=O
The method, boiled down:
as §1

Compound in assay [7]: C1CCN(C1)C(=O)NC2=CC=CC(=C2)NC3=NC=C(C(=N3)NCCC4=CN=CN4)Br
In outline: as §1

Compound in assay [8]: C1CN(CCC1(CC2=CC=C(C=C2)Cl)N)C3=NC=NC4=C3C=CN4
In outline: as §1

Compound in another assay: C1COCCN1CCN2C3=CC=CC=C3N=C2NC(=O)C4=CC(=CC=C4)[N+](=O)[O-] [IRAK-1-4 Inhibitor I]
The method, boiled down:
as §1

With SMC4 (UniProt Q9NTJ3), the log2 fold change with erlotinib is inactive: -0.006; in [1] it was inactive: -0.018; in assay [2], inactive: -0.007; in assay [3] it was inactive: 0; in assay [4], inactive: -0.026; in [5], inactive: 0. The log2 fold change was inactive: -0.046 in assay [6], inactive: -0.015 in assay [7], inactive: -0.014 in [8] and inactive: -0.009 with IRAK-1-4 Inhibitor I.

With SOS1 (UniProt Q07889), the log2 fold change is inactive: 0.103 with erlotinib; inactive: 0.104 in [1]; inactive: 0.126 in assay [2]; inactive: -0.009 in [3]; inactive: -0.01 in assay [4]; inactive: -0.045 in [5]. Also, the log2 fold change in assay [6] was inactive: -0.074; in assay [7], inactive: -0.038; in assay [8], inactive: -0.026; with IRAK-1-4 Inhibitor I, inactive: 0.024.

SMTN isoform 6 (UniProt P53814): the log2 fold change in the assay with erlotinib is inactive: -0.033; in assay [1], inactive: 0.081; in [2] it was inactive: -0.01; in assay [3], inactive: 0.035; in assay [4], inactive: 0.006; in assay [5], inactive: 0.021. The log2 fold change in assay [6] was inactive: 0.005; in [7], inactive: -0.018; in [8], inactive: 0.015; in the assay with IRAK-1-4 Inhibitor I, inactive: 0.058.

With SMIM8 (UniProt Q96KF7), the log2 fold change was inactive: -0.057 in the assay with erlotinib; inactive: 0.005 in assay [1]; inactive: 0.028 in [2]; inactive: 0.004 in assay [3]; inactive: -0.004 in [4]; inactive: -0.137 in assay [5]. The log2 fold change in assay [6] is inactive: 0.028; in [7], inactive: 0.026; in assay [8], inactive: 0; in the assay with IRAK-1-4 Inhibitor I it was inactive: 0.058.

On to SMYD2 (UniProt Q9NRG4), for which the log2 fold change is inactive: 0.021 with erlotinib; inactive: 0.033 in assay [1]; inactive: -0.015 in [2]; inactive: 0.036 in assay [3]; inactive: -0.012 in assay [4]; inactive: -0.044 in [5]. The log2 fold change is inactive: -0.029 in [6], inactive: 0.013 in assay [7], inactive: 0.022 in [8] and inactive: -0.005 with IRAK-1-4 Inhibitor I.

On to SOD2 (UniProt P04179), for which the log2 fold change with erlotinib was inactive: 0.014; in assay [1] it was inactive: 0.004; in [2], inactive: 0.024; in assay [3] it was inactive: -0.025; in assay [4] it was inactive: -0.006; in assay [5], inactive: -0.001. The log2 fold change in assay [6] is inactive: 0.001; in assay [7] it was inactive: 0.007; in [8] it was inactive: 0.009; in the assay with IRAK-1-4 Inhibitor I, inactive: 0.019.

As for SNRPG (UniProt P62308), the log2 fold change with erlotinib is inactive: -0.004; in [1] it was inactive: -0.012; in assay [2], inactive: 0.042; in [3], inactive: 0.011; in assay [4], inactive: -0.066; in assay [5] it was inactive: -0.007. Also, the log2 fold change in assay [6] is inactive: -0.011; in assay [7], inactive: -0.008; in [8], inactive: 0.038; in the assay with IRAK-1-4 Inhibitor I it was inactive: 0.019.

For the target SP4 (UniProt Q02446), the log2 fold change with erlotinib was inactive: 0; in [1], inactive: -0.021; in assay [2] it was inactive: -0.186; in assay [3], inactive: 0.218; in [4], inactive: 0.021; in [5], inactive: -0.094. Besides, the log2 fold change in assay [6] is inactive: -0.332; in assay [7], inactive: -0.046; in [8], inactive: -0.02; in the assay with IRAK-1-4 Inhibitor I it was inactive: 0.023.

For SOCS2 (UniProt O14508), the log2 fold change in the assay with erlotinib was inactive: 0.018; in [1], inactive: 0.015; in assay [2], inactive: 0.008; in assay [3] it was inactive: 0; in [4], inactive: 0.005; in assay [5] it was inactive: -0.005. Also, the log2 fold change in assay [6] is inactive: -0.001; in assay [7], inactive: -0.024; in assay [8], inactive: 0.023; with IRAK-1-4 Inhibitor I, inactive: -0.005.

Regarding SMC1B isoform 3 (UniProt Q8NDV3), the log2 fold change was inactive: -0.002 in the assay with erlotinib; active: 0.265 in [1]; inactive: 0.003 in assay [2]; inactive: -0.04 in [3]; inactive: -0.067 in [4]; inactive: 0.02 in assay [5]. For the same target, the log2 fold change in assay [6] was inactive: -0.032; in assay [7], inactive: 0.048; in [8] it was inactive: 0.205; with IRAK-1-4 Inhibitor I, inactive: 0.043.

On to SP100 isoform 4 (UniProt P23497), for which the log2 fold change with erlotinib was inactive: 0.006; in [1] it was inactive: 0.016; in assay [2], inactive: -0.006; in [3], inactive: 0.015; in assay [4] it was inactive: -0.011; in [5], inactive: -0.022. For the same target, the log2 fold change was inactive: 0 in assay [6], inactive: -0.013 in assay [7], inactive: -0.014 in assay [8] and inactive: -0.057 in the assay with IRAK-1-4 Inhibitor I.

As for SPARC (UniProt P09486), the log2 fold change was inactive: 0.059 with erlotinib; inactive: -0.032 in [1]; inactive: 0.171 in [2]; inactive: 0.036 in assay [3]; inactive: -0.054 in assay [4]; inactive: 0.05 in assay [5]. The log2 fold change is inactive: -0.016 in assay [6], inactive: 0.002 in [7], inactive: 0 in assay [8] and inactive: -0.014 in the assay with IRAK-1-4 Inhibitor I.

For SPAG5 (UniProt Q96R06), the log2 fold change in the assay with erlotinib was inactive: 0.013; in [1], inactive: 0.012; in assay [2], inactive: -0.054; in assay [3] it was inactive: 0.003; in assay [4], inactive: -0.008; in assay [5], inactive: 0.014. Further, the log2 fold change in assay [6] was inactive: 0.018; in [7], inactive: -0.009; in [8] it was inactive: -0.011; with IRAK-1-4 Inhibitor I, inactive: 0.

Take SNAPIN (UniProt O95295): the log2 fold change was inactive: -0.005 with erlotinib; inactive: 0.019 in assay [1]; inactive: 0.031 in [2]; inactive: 0.032 in assay [3]; inactive: 0.028 in [4]; inactive: 0.013 in assay [5]. The log2 fold change in assay [6] is inactive: 0; in [7] it was inactive: -0.033; in assay [8], inactive: 0.061; with IRAK-1-4 Inhibitor I it was inactive: -0.007.

Regarding SNCG (UniProt O76070), the log2 fold change is inactive: -0.001 with erlotinib; inactive: -0.011 in assay [1]; inactive: 0.039 in assay [2]; inactive: 0.002 in assay [3]; inactive: -0.053 in assay [4]; inactive: -0.006 in assay [5]. For the same target, the log2 fold change in assay [6] was inactive: 0.036; in [7] it was inactive: -0.016; in assay [8], inactive: 0.012; in the assay with IRAK-1-4 Inhibitor I it was inactive: 0.
